This is one part of the list. Shown are side measurements of this screen, not its main read-out; they come without a call. Compounds called inactive in the main read-out are mostly missing here. Potencies come from curve fits of mixed quality, noted in brackets.
Experiment: qHTS Assay to Find Inhibitors of Chronic Active B-Cell Receptor Signaling
Conditions: ABC-DLBCL IkBa-CBG/CBR reporter, luminescence ratio (green luciferase fused to IkBa over red control in TMD8 lymphoma cells), 4 h; measured here: CBR red luminescence, cell number
How it was run: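 Compounds up to 46 uM were incubated four hours with TMD8 cells whose green CBG68 luciferase is fused to IkappaBalpha; red CBR luminescence normalised the signal, and concentration-effect curves were fitted to fusion, red and ratio data.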
With `O=c1c2ccccc2nnn1CSc1nnc(C2COc3ccccc3O2)n1-c1ccccc1` (stereo unspecified) the AC50 was 12.6 µM [falling, partial curve, poor fit]. In the case of `CCCN(CC(=O)Nc1ccccc1C)C(=O)c1ccc(-c2ccccc2)cc1`, the AC50 is reported as 35.5 µM [falling, partial curve, poor fit]. For `Oc1ccc(-c2csc(Nc3ccccn3)n2)cc1O`, the AC50 was 20 µM [falling, single point]. With `COc1cc(NS(=O)(=O)c2ccc3c(c2)n(C)c(=O)n3C)cc(OC)c1` the AC50 was 5.8 µM [rising, partial curve, poor fit]. In the case of `C/C(=C/c1ccccc1)C(=O)N1CCN(c2ccc(F)cc2)CC1`, the AC50 is reported as 0.355 µM [rising, full curve]. In the case of `Cc1ccc(S(=O)(=O)NNC(=O)C2Cc3c(ccc4ccccc34)O2)cc1` (stereo unspecified), the AC50 is reported as 8.91 µM [falling, partial curve, poor fit]. With `CC(=O)Nc1cc2c(cc1C(C)=O)OCCO2` the AC50 was 14.6 µM [falling, single point]. For `CC(=O)Nc1nc(C)c(-c2csc(Nc3cccc(C(C)=O)c3)n2)s1`, the AC50 was 0.631 µM [falling, full curve, poor fit]. With `Cc1nc2c(=O)oc3ccccc3c2n1-c1ccccc1` the AC50 was 0.082 µM [rising, full curve, poor fit]. For `Cc1c(NC(=O)CSc2nnnn2-c2ccc(F)cc2)c(=O)n(-c2ccccc2)n1C`, the AC50 was 25.1 µM [rising, single point]. In the case of `CNC(=O)c1cccc2nc3ccccc3nc12`, the AC50 is reported as 0.501 µM [falling, full curve, poor fit]. In the case of `CCOC(=O)C1=C(C)OC(N)=C(C#N)C1c1cc2ccccc2nc1N1CCCCC1` (stereo unspecified), the AC50 is reported as 35.5 µM [falling, single point]. With `CC(C)(C)OC(=O)C[C@@H]1C/C=C\C[C@H](CC(=O)N(CCO)Cc2ccccc2)C(=O)N2CCC[C@@H]2COC1=O` the AC50 was 0.00411 µM [rising, full curve, poor fit]. For `COc1ccc(/C=C/C(=O)NCCc2c[nH]c3ccccc23)cc1OC`, the AC50 was 25.1 µM [falling, single point]. In the case of `O=C(O)c1cccc(NC(=S)N/N=C/c2cccnc2)c1`, the AC50 is reported as 11.2 µM [falling, partial curve]. With `CCOC(=O)Cc1csc(NC(=O)c2cccs2)n1` the AC50 was 10 µM [falling, partial curve, poor fit]. With `Cc1onc(-c2c(F)cccc2Cl)c1C(=O)OCn1nnc2ccccc2c1=O` the AC50 was 29.1 µM [falling, single point]. For `Cc1cc(N2CCN(Cc3cn(C)nc3-c3cccc(Cl)c3)CC2)cc(C)n1`, the AC50 was 8.91 µM [falling, partial curve, poor fit]. For `CCCC(=O)Nc1cccc(NC(=O)c2ccc3c(c2)OCCO3)c1`, the AC50 was 1.16 µM [falling, full curve]. With `CC(=O)Nc1ccccc1NC(=O)C/C(C)=N/NC(=O)c1ccccn1` the AC50 was 3.98 µM [falling, full curve]. In the case of `O=C(Nc1cccnc1)c1cc(-c2ccccc2O)on1`, the AC50 is reported as 0.251 µM [falling, full curve]. With `Cc1c(C#N)c(N=CN(C)C)c(C(=O)c2ccc(Br)cc2)n1-c1ccc(Cl)cc1` the AC50 was 23.1 µM [rising, single point]. In the case of `CCC(=O)Nc1cc(-c2nn(C)c(=O)c3ccccc23)ccc1N1CCOCC1`, the AC50 is reported as 0.0058 µM [rising, full curve, poor fit]. With `CC1Oc2ccccc2C=C1/C=N/NC(=O)c1ccccc1` (stereo unspecified) the AC50 was 20.6 µM [falling, partial curve]. With `Cc1cccc([C@@H]2[C@@H]3C(=O)N(Cc4ccccc4)C(=O)[C@@H]3[C@]3(Cc4ccccc4)C(=O)N(c4cccc(Cl)c4)C(=O)N23)c1` the AC50 was 1.84 µM [falling, full curve]. With `O=C(NN=Cc1ccc(OC(F)F)cc1)c1ccc(NS(=O)(=O)c2cccs2)cc1` the AC50 was 4.61 µM [falling, partial curve, poor fit]. In the case of `CCOC(=O)C1=C(C)N=c2s/c(=C/c3cccc(OCC(=O)O)c3)c(=O)n2C1c1ccc(F)cc1` (stereo unspecified), the AC50 is reported as 3.98 µM [falling, full curve, poor fit]. For `Cn1ccnc1SCC(=O)Nc1cccc([N+](=O)[O-])c1`, the AC50 was 14.1 µM [rising, partial curve, poor fit]. For `CCc1cccc(C)c1N1C(=O)CN(Cc2ccccc2)C1=S`, the AC50 was 10 µM [rising, partial curve, poor fit]. With `COc1ccc(C/C(N)=N/OC(=O)CCc2ccccc2)cc1` the AC50 was 0.891 µM [rising, full curve, poor fit]. In the case of `Cc1cc(Cl)ccc1OCCCC(=O)NCCN1C(=O)S/C(=C\c2cccnc2)C1=O`, the AC50 is reported as 29.1 µM [falling, single point]. For `O=c1oc2ccccc2cc1-c1csc(NN=C2CCCC2)n1`, the AC50 was 3.26 µM [rising, single point]. For `Cc1ccc(CC(=O)NCCCc2ccccc2)cc1`, the AC50 was 14.6 µM [rising, partial curve, poor fit]. In the case of `O=C(NCCO)c1nc(C(=O)c2ccccc2)c2ccccc2n1`, the AC50 is reported as 2.91 µM [rising, full curve, poor fit]. For `CCCS(=O)(=O)NCCc1sc2nc(-c3ccc(F)cc3)nn2c1C`, the AC50 was 11.2 µM [falling, partial curve, poor fit]. In the case of `Cc1ccnc(Nc2nc(-c3ccc(Cl)cc3)cs2)c1`, the AC50 is reported as 22.4 µM [falling, single point]. In the case of `O=C(COc1ccc(Br)cc1)NCCO`, the AC50 is reported as 4.61 µM [rising, full curve, poor fit]. With `O=C(Nc1ccc(F)cc1)Nc1ccc(S(=O)(=O)N2CCCC2)cc1` the AC50 was 23.1 µM [falling, partial curve, poor fit]. With `CCN(CC)C(=O)CSc1nc(N)c(C(=O)Nc2ccc(OC)cc2)s1` the AC50 was 2.59 µM [rising, partial curve]. With `O=C(COC(=O)CC12CC3CC(CC(C3)C1)C2)Nc1cccnc1Cl` the AC50 was 17.8 µM [falling, single point]. For `Cc1csc(=O)n1CC(=O)OCc1cccc2ccccc12`, the AC50 was 23.1 µM [rising, partial curve, poor fit].

Reference: PubChem BioAssay AID493014 (National Center for Advancing Translational Sciences (NCATS), 2011)
